From paper PMC5128714 come the findings set out here.

By UniProt entry, the sequences of proteins in these tests, tags left out.
UniProt O15392: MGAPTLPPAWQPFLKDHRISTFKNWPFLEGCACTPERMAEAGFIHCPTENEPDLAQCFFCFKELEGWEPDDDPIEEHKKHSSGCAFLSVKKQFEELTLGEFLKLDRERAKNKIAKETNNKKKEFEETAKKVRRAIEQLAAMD
UniProt P35222: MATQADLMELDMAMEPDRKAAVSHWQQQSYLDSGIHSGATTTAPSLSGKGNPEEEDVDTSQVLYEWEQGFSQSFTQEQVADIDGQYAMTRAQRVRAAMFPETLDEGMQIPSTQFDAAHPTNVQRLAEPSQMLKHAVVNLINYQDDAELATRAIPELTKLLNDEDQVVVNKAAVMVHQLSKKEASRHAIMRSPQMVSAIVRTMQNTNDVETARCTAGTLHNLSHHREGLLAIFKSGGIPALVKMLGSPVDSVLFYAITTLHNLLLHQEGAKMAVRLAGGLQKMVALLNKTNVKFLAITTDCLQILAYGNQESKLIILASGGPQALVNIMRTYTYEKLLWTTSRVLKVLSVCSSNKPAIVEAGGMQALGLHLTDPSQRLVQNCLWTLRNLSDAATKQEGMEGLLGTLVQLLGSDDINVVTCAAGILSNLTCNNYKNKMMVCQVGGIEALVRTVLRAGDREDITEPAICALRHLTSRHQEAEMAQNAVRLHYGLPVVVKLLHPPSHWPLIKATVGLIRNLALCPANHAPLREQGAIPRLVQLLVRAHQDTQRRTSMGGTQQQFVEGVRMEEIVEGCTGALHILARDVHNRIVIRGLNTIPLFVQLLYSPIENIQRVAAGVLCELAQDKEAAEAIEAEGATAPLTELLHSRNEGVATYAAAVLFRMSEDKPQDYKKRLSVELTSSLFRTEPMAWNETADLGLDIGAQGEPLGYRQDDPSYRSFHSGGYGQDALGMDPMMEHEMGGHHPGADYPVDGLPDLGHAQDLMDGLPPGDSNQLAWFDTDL

This experiment deals with Survivin (human (endogenous in human ES cells)) (UniProt O15392). The experiment is described as follows: co-IP; immunoprecipitation with Survivin in human ES cells; β-catenin found in the precipitate; no method section for the co-IP itself.

Results are given in words; binding and its absence hold for the method and conditions named. In cells and extracts the contact can be indirect. Some results given as binding are weak or reduced against the parent protein; the word gives no strength.

As for β-catenin (from UniProt P35222 1-781), the binding entry is reported as “binds”.
